Data: patent EP1061945B1, “USE OF VIP ANALOGUES FOR PREVENTING AND TREATING BRAIN DAMAGE IN HUMAN BABIES” (ASSISTANCE PUBLIQUE - HOPITAUX DE PARIS, priority 1998, dated 2002)
“Also recorded” adds a separate entry of the source. Like-named read-outs stand apart in the source and are kept apart here. Not every detail of the peptide structures is certain; ends, links or a residue may be inferred.

Columns and labels:
[1] = tested on: lésions excitotoxiques induites par l'iboténate dans le cerveau de souris en développement; experiment: Ibotenate-induced excitotoxic brain lesions in newborn mice (intracerebral ibotenate at JN or JN+5); format: in vivo; conditions: for taille des lésions de substance blanche: ibotenate at JN+5
From the text: Le modèle chez la souris obtenu par injection intracérébrale d'iboténate reproduit : • des lésions du cortex cérébral, semblables à celles observées chez le foetus humain entre 16 et 25 semaines de grossesse, lorsque l'iboténate est injecté le jour de la naissance (JN), • des lésions du cortex cérébral semblables aux lésions du nouveau-né humain à terme, lorsque l'injection d'iboténate est effectuée à JN + 5 et • des lésions de la substance blanche, semblables aux lésions du prématuré humain, lorsque l'iboténate est injecté à JN + 5.
Dans l'ensemble de ces figures : * = p<0,05, ** = p<0,01 (ANOVA + test de comparaison multiple de Dunnett par rapport aux contrôles (iboténate seul)).
Les souris sont préparées comme décrit dans J Clin. Investig. précité.
Le VIP est injecté par voie intracérébrale à raison de 1 µg (dose par animal) et les VIP cycliques ont été injectés par voie intrapéritonéale à raison de 10 µg (dose par animal).

[2] = tested on: lésions excitotoxiques induites par l'iboténate dans le cerveau de souris en développement; conditions: VIP intracerebral, Gressens et al., J. Clin. Investig. 1997, cited from earlier work

Q: Which “taille des lésions de substance blanche” value ([1]; peptide by intracerebral route) does the source give for CC[C@H](C)[C@H](NC(=O)[C@H](CO)NC(=O)[C@H](CC(N)=O)NC(=O)[C@H](CC(C)C)NC(=O)[C@H](Cc1ccc(O)cc1)NC(=O)[C@H](CCCCN)NC(=O)[C@H](CCCCN)NC(=O)[C@@H](NC(=O)[C@H](C)NC(=O)[C@H](CCSC)NC(=O)[C@H](CCC(N)=O)NC(=O)[C@H](CCCCN)NC(=O)[C@H](CCCNC(=N)N)NC(=O)[C@H](CC(C)C)NC(=O)[C@H](CCCNC(=N)N)NC(=O)[C@@H](NC(=O)[C@H](Cc1ccc(O)cc1)NC(=O)[C@H](CC(N)=O)NC(=O)[C@H](CC(=O)O)NC(=O)[C@@H](NC(=O)[C@H](Cc1ccccc1)NC(=O)[C@@H](NC(=O)[C@H](C)NC(=O)[C@H](CC(=O)O)NC(=O)[C@H](CO)NC(=O)[C@@H](N)Cc1c[nH]cn1)C(C)C)[C@@H](C)O)[C@@H](C)O)C(C)C)C(=O)N[C@@H](CC(C)C)C(=O)N[C@@H](CC(N)=O)C(N)=O [VIP, reference compound] here?
A: Its value is “protège le cerveau de la souris contre les lésions induites par l'iboténate”.

Q: What about the “taille des lésions de substance blanche” value ([1]; peptide by intraperitoneal route) of the same compound?
A: Its value is “aucune activité”.

Q: And the “taille des lésions corticales” value ([1]; ibotenate at JN, given at the same time, VIP intracerebral, 1 µg per animal)?
A: Its value is “protège le cerveau de la souris contre les lésions induites par l'iboténate; also recorded: diminution significative”.

Q: What about the “protection de la substance blanche” value ([2]; JN+5) of the same compound?
A: Its value is “protège la substance blanche”.

Q: What about the “protection des lésions corticales” value ([2]; JN+5) of the same compound?
A: Its value is “pas les lésions corticales”.

Q: And the “protection des lésions corticales” value ([2]; JN)?
A: The value was “protège les lésions corticales”.
